For at least one compound, name, drawing or mass did not settle the structure.
System: PGE2 and 6-keto-PGF1a
Test: PGE2 and 6-keto-PGF1a release from TNF-α-exposed TSMCs (EIA)
Format: cell-based, rat
Conditions: 1 μM, 20 min pretreatment, then TNF-α 100 ng/ml for 24 hrs; FIG. 12
Protocol: The tracheal smooth muscle cell (TSM) culture is prepared from male Wistar rats purchased from the National Laboratory Animal Breeding and Research Center (Taipei, Taiwan).
The Wistar rats were injected intraperitoneally with a lethal dose of pentobarbital. The tracheas were excised and cut longitudinally through the cartilage. Using a dissecting microscope, TSM strips were dissected from the surrounding parenchyma. The epithelium was removed from the luminal surface, and bands of TSM were gently separated from the underlying connective tissue. […]
Incubation of TSMCs with TNF-α (100 ng/ml) increased the releases of PGs, PGE2 and 6-keto-PGF1a, a PGI2 stable metabolite, and the greatest increases occurred were measured at 24 hr. Please refer to the FIG. 12, TSMCs were pretreated with KMUP-1 (10 μM), KMUP-3 (10 μM), dexamethasone (1 μM) and zaprinast (10 μM) for 20 minutes, and were further incubated in the presence of TNF-α (100 ng/ml) for 24 hrs, where the concentrations of PGE2 and 6-keto-PGF1a (stable metabolite of […]) in the culture medium were measured using PGE2 and 6-keto-PGF1a EIA assay kits (Cayman Chemical Co., Ann Arbor, Mich.) in duplicate.

Compound: C[C@@H]1C[C@H]2[C@@H]3CCC4=CC(=O)C=C[C@]4(C)[C@@]3(F)[C@@H](O)C[C@]2(C)[C@@]1(O)C(=O)CO [dexamethasone, reference compound]
- effect on TNF-α-induced PGE2 and 6-keto-PGF1a formation: significantly inhibited

— patent US20090209560A1, “ANTI-INFLAMMATION ACTIVITY OF NEWLY SYNTHESIZED XANTHINE DERIVATIVES KMUP-1 AND KMUP-3” (KAOHSIUNG MEDICAL UNIVERSITY, priority 2006, published 2009)
